{"sequences": {"note": "Chains of the proteins cited; added tags and fusions are not shown.", "UniProt O00429": "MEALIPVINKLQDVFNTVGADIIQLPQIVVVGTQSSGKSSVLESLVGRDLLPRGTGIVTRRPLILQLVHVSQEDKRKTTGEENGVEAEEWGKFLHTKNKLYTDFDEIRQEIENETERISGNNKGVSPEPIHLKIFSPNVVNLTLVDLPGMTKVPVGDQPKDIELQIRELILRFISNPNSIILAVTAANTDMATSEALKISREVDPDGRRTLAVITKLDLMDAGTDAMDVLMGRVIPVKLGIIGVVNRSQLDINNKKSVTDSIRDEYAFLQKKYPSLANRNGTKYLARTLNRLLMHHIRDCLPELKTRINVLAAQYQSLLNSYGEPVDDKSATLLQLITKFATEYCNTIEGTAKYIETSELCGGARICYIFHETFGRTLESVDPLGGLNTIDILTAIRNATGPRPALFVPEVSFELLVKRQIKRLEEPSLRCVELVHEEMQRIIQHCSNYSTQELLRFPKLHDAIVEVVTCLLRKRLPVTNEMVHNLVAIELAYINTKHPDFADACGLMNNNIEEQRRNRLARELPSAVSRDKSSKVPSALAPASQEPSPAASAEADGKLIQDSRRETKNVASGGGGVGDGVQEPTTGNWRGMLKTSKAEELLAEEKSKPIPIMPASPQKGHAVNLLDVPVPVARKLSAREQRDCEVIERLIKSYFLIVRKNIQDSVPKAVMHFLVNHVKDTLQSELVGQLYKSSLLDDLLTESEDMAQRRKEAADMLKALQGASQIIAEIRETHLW"}, "source": "paper PMC12669963", "about": "“PGAM5 cleavage and oligomerization equilibrates mitochondrial dynamics under stress by regulating DRP1 function” (Journal of Cell Science, 2025)", "key": {"PGAM5 WT GFP [1]": {"target": "T1, PGAM5 WT GFP (UniProt Q96HS1)", "T1 sequence": "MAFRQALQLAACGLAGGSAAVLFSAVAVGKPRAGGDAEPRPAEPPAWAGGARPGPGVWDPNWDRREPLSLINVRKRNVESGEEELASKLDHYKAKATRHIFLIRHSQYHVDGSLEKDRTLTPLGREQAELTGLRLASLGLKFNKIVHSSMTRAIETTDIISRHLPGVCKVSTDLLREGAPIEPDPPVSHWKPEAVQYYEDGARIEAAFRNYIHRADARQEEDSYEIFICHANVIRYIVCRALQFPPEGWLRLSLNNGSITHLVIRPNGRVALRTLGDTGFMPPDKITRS", "experiment": "co-IP; GFP-trap beads on lysates of transfected U2OS cells cultured with medium or starved with HBSS for 3 h; same lysis buffer; western blot"}, "PGAM5 WT GFP [2]": {"target": "T1, PGAM5 WT GFP", "experiment": "co-IP; GFP-trap beads on lysates of transfected HEK293 (methods: HEK293T) cells treated with DMSO or 20 μM CCCP for 2 h; lysis buffer 20 mM Tris-HCl pH 7.4, 200 mM NaCl, 5 mM EDTA, 10 mM MgCl2, 1% Triton X-100; western blot"}}, "note": "These are yes or no findings as the source states them, for the method shown. In cells and extracts the contact can be indirect. Some entries that bind do so weakly or less than the wild type. Sequences can lack the tags named with a protein."}
{"substance": "dynamin-related protein 1 (DRP1) (from UniProt O00429 1-736)", "values": [{"measurement": "binding", "setting": "PGAM5 WT GFP [1]", "value": "binds"}, {"measurement": "binding", "setting": "PGAM5 WT GFP [2]", "value": "binds"}]}
